Measurements published in PMC11925395.
No constants are given. Whether binding was seen depends on the method and setting. In cells and extracts the contact can be indirect. Some binding calls cover weakened binding; strength is not graded here.

Protein sequences, listed by entry. Tags and fused reporters are not part of them.
UniProt Q96H55: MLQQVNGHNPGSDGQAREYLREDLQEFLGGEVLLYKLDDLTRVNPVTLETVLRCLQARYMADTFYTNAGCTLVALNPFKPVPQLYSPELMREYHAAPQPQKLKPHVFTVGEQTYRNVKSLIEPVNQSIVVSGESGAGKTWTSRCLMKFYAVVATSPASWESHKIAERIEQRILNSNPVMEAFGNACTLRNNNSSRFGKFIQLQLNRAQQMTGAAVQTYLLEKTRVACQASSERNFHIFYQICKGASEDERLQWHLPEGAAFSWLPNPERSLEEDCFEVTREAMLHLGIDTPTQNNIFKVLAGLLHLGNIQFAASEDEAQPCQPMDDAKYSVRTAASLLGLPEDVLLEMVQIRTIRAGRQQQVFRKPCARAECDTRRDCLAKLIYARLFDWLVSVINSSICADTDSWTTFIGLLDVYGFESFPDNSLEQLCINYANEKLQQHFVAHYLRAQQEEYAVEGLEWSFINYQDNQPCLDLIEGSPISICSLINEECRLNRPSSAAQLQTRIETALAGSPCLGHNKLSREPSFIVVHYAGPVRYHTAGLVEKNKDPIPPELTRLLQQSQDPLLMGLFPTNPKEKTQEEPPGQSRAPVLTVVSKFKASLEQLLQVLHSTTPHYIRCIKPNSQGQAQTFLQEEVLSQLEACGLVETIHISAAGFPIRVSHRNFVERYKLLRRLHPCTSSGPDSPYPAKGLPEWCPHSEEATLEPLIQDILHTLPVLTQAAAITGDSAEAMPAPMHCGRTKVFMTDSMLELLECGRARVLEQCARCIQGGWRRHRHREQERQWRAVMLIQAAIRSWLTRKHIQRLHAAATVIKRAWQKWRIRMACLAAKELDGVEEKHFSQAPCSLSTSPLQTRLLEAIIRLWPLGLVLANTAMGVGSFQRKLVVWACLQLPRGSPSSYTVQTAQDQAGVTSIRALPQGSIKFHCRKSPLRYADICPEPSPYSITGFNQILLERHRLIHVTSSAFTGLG
UniProt Q8IXI2: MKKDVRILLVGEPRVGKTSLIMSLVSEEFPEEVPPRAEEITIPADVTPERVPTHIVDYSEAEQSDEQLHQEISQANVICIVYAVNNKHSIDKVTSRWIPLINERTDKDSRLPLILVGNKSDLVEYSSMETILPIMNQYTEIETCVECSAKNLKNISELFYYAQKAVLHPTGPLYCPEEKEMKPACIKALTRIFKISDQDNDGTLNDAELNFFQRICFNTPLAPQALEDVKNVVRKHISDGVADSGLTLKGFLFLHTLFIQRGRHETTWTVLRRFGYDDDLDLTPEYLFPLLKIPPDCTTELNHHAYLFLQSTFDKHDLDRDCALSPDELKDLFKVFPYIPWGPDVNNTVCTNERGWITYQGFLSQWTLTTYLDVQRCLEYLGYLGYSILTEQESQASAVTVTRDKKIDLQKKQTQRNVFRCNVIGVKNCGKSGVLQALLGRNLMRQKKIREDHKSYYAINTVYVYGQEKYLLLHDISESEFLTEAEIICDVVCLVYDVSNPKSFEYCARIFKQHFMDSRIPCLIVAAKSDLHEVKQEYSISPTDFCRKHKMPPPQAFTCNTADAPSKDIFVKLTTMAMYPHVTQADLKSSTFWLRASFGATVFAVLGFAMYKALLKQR

What was measured:
Myo19–FLAG [1] = target: Myo19–FLAG (UniProt Q96H55); assay: co-IP; anti-FLAG agarose affinity purification of Myo19–FLAG from Mtx3 KO cells (absence of Mtx3); eluted with FLAG peptide; immunoblot
Myo19–FLAG [2] = target: Myo19–FLAG (UniProt Q96H55); assay: co-IP; anti-FLAG agarose affinity purification from lysates of cells stably expressing Myo19–FLAG (HeLa) or Mtx3–FLAG (Mtx3 KO cells); lysis buffer 150 mM NaCl, 20 mM HEPES pH 7.4, 2 mM MgCl2, 1 mM EGTA, 0.5% Triton X-100, 2 mM ATP; 2 h at 4°C; eluted with FLAG peptide; immunoblot

“Miro1, endogenous (from UniProt Q8IXI2 1-618)” was tested, and the binding (Myo19–FLAG [1]) was “no binding (condition: in Mtx3 KO cells (absence of Mtx3))” and the binding (Myo19–FLAG [2]) was “binds”.
